These results are taken from the supplement of paper PMC7666118.

By UniProt entry, the sequences of proteins in these tests, tags left out. Where a name states a change or a piece, a line headed by the entry shows the natural chain unless it says otherwise.
UniProt P19367: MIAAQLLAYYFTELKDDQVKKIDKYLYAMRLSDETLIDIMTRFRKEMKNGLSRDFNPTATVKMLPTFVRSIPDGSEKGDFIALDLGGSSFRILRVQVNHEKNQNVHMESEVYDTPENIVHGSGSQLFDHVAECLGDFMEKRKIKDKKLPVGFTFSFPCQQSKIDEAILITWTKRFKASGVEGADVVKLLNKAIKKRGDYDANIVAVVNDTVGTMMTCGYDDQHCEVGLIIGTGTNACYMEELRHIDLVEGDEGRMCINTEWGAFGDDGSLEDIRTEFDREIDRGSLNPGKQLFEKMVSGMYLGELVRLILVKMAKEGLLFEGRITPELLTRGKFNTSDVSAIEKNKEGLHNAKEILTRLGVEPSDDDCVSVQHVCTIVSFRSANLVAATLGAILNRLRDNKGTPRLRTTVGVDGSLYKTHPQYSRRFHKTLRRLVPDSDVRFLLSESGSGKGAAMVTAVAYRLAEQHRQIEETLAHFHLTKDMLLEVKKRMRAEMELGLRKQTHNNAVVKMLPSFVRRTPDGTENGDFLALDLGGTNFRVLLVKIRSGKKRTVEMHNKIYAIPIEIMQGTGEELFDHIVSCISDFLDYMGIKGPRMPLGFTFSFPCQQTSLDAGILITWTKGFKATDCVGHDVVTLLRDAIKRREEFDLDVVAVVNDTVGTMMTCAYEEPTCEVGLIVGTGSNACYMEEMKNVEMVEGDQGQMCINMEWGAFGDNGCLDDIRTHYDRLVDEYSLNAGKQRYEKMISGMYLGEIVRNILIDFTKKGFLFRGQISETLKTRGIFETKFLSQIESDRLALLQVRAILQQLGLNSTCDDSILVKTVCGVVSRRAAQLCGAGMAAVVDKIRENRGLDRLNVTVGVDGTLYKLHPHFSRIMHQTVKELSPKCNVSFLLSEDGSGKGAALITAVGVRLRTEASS
UniProt Q13227: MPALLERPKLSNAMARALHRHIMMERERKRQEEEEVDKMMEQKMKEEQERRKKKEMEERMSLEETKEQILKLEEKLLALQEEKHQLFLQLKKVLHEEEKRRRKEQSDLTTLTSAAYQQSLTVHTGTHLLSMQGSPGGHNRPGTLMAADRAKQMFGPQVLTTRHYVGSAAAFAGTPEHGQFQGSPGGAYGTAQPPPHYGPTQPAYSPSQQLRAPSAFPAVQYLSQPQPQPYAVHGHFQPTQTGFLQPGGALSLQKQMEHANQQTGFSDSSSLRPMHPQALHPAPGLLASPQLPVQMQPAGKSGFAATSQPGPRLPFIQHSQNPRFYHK
UniProt P49915: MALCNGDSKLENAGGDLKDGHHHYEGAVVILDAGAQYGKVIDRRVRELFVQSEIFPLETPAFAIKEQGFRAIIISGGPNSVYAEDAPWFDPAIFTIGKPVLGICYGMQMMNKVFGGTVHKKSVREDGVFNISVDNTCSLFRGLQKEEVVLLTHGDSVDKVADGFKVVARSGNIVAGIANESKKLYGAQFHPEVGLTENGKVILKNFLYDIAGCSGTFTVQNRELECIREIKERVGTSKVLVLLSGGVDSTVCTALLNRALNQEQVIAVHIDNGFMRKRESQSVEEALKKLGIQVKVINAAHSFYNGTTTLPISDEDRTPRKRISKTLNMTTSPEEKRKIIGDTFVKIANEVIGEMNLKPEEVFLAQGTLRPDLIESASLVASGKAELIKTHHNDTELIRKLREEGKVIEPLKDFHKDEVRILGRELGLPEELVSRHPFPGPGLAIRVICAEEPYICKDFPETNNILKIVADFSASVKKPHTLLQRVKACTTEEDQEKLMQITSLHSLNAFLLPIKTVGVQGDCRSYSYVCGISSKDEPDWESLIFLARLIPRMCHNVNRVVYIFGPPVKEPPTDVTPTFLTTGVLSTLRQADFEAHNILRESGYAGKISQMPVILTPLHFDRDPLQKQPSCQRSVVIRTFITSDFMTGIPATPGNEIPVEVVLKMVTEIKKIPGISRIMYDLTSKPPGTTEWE
UniProt O43292: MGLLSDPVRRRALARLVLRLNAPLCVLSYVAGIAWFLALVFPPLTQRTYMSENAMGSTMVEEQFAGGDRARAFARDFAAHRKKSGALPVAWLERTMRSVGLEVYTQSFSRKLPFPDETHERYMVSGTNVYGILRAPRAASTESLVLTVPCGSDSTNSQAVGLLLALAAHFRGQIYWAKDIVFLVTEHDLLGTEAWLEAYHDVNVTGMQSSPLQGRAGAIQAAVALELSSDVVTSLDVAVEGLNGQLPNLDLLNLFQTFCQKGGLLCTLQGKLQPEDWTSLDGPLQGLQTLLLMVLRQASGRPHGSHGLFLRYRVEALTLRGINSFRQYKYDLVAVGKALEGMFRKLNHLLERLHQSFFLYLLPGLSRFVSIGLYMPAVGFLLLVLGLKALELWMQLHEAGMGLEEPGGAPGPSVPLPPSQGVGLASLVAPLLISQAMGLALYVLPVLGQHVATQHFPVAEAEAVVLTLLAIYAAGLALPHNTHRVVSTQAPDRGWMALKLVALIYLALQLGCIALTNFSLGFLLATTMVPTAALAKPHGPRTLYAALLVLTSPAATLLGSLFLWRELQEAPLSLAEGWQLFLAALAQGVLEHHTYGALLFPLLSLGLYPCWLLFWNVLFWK
UniProt P55789: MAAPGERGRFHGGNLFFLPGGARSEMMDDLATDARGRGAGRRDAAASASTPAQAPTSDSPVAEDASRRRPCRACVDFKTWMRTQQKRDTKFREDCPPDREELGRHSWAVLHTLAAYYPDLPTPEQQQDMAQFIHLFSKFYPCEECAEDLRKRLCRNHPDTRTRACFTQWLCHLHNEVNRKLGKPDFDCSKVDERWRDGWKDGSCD
UniProt P46976: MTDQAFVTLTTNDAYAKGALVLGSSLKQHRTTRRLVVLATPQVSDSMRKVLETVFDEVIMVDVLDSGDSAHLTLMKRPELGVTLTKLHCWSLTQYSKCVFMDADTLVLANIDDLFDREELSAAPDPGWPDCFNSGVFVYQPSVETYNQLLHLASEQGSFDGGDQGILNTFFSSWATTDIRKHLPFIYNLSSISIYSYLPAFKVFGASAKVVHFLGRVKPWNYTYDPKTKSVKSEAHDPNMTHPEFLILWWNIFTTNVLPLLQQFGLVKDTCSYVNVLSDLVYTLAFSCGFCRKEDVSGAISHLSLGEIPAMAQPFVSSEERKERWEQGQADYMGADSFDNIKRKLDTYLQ
UniProt Q8N2G8: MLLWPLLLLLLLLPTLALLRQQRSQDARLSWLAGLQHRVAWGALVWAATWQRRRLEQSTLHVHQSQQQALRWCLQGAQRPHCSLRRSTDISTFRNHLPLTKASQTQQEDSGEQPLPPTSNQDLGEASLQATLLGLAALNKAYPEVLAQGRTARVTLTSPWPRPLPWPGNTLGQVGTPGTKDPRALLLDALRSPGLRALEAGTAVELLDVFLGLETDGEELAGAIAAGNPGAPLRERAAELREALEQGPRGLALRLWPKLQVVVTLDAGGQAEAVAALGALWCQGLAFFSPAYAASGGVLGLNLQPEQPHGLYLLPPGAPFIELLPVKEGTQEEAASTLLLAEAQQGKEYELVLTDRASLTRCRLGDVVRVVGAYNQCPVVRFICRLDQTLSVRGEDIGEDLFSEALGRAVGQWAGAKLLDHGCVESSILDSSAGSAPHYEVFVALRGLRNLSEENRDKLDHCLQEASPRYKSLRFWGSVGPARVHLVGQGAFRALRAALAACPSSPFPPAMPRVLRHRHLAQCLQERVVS
UniProt P57678: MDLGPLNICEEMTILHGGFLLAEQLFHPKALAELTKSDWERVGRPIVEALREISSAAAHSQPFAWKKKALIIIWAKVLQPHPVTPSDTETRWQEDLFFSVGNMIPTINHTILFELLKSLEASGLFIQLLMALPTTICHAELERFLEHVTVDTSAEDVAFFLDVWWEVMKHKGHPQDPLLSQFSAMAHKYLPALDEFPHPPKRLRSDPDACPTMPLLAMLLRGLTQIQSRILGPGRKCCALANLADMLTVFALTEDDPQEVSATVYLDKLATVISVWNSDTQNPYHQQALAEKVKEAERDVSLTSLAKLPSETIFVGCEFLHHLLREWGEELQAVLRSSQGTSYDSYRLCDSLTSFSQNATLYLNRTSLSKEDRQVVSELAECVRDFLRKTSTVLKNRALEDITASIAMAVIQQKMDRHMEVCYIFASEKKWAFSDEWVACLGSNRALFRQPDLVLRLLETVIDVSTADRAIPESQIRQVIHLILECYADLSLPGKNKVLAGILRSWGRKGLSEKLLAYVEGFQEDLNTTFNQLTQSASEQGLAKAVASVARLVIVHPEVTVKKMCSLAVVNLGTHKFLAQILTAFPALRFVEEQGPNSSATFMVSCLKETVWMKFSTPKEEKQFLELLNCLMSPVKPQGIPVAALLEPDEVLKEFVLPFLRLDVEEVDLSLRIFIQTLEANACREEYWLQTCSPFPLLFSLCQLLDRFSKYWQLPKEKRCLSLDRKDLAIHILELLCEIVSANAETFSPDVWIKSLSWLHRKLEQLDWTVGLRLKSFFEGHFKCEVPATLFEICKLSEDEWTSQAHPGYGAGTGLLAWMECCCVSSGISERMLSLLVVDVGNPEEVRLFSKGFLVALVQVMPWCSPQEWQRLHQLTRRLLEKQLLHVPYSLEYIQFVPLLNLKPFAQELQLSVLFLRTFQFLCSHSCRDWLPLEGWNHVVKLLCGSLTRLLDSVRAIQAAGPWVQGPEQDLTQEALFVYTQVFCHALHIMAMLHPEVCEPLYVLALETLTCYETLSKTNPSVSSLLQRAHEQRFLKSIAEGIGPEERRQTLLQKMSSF
UniProt Q13322: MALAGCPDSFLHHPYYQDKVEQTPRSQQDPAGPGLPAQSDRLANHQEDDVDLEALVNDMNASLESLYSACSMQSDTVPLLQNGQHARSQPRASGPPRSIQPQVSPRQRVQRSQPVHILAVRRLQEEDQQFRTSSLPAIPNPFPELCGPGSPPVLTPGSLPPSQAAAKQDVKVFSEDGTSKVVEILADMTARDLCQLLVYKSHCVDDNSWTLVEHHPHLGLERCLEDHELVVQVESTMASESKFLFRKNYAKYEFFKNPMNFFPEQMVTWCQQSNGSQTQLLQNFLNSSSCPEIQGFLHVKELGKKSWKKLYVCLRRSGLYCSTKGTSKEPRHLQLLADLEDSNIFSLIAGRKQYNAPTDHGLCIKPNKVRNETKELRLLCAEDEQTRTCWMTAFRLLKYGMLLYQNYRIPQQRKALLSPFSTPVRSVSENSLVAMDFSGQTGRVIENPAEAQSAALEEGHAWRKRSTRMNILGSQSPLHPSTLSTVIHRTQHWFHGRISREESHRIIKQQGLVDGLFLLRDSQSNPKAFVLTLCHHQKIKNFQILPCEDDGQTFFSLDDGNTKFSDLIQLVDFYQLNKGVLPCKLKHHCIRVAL
UniProt Q92759: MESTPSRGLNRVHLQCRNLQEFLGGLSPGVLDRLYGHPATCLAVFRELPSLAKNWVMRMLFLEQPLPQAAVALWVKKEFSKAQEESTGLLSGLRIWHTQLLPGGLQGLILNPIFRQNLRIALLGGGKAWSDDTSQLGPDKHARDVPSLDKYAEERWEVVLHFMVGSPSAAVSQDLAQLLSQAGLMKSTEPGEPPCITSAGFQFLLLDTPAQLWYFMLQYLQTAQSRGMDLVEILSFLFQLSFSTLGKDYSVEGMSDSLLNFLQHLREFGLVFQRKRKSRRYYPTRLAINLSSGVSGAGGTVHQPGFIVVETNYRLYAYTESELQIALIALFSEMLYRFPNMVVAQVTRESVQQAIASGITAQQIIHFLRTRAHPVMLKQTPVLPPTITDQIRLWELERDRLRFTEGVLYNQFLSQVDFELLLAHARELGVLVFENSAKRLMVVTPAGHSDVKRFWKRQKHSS
UniProt Q9UJY4: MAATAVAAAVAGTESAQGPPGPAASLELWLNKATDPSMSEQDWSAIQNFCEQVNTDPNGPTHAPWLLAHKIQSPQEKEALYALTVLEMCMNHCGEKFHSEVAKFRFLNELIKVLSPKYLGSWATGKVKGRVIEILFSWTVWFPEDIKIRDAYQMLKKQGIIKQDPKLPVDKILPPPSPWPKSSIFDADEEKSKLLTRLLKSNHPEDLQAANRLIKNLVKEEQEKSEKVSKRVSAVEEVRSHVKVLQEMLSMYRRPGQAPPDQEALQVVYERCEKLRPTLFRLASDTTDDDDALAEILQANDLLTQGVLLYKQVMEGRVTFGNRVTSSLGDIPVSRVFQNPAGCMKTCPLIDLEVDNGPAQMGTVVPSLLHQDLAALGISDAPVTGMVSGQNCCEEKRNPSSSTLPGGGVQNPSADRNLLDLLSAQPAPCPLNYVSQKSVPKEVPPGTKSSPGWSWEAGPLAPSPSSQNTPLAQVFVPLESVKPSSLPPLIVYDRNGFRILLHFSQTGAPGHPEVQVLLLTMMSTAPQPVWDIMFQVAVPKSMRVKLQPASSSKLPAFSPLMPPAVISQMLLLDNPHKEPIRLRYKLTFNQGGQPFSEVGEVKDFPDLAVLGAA
UniProt Q9Y248: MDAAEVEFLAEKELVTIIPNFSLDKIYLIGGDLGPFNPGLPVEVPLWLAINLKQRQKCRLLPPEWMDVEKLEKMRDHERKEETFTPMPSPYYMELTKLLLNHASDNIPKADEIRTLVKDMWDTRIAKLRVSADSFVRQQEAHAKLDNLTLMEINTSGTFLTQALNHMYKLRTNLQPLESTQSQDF

The other results are listed elsewhere or left out.

Compound in the assay: COc1ccc(Cn2ccc3ccc(C(=O)NO)cc32)cc1
Description: dose-dependent thermal stabilisation call (2D-TPP, DLPTP, 10% FDR) (binary (1 = stabilised)); higher = stabilised by the compound. Particulars: system: HL-60 intact cells; concentration range 0.04-10 µM.
As for HK1 (UniProt P19367), the “dose-dependent thermal stabilisation call” value was inactive: 0.
Under GRPEL1 (UniProt Q9HAV7) stands inactive: 0; under HINT2 (UniProt Q9BX68), inactive: 0; under GTF2H1 (UniProt P32780), inactive: 0.
For GGH (UniProt Q92820) the value was inactive: 0; for GDE1 (UniProt Q9NZC3), inactive: 0; for GPS2 (UniProt Q13227), inactive: 0.
Under GMPS (UniProt P49915) stands inactive: 0.
For the target GPAA1 (UniProt O43292), the “dose-dependent thermal stabilisation call” value was inactive: 0.
For HEATR5B (UniProt Q9P2D3) the value was inactive: 0; for GFER (UniProt P55789), inactive: 0; for HIF1AN (UniProt Q9NWT6), inactive: 0.
For HLTF (UniProt Q14527) the value was inactive: 0; for HCG_21078, inactive: 0; for GLUD1 (UniProt P00367), active: 1.
For GYG1 (UniProt P46976) the value was inactive: 0.
For GHDC (UniProt Q8N2G8), the “dose-dependent thermal stabilisation call” value is active: 1.
Under GEMIN4 (UniProt P57678) stands inactive: 0; under GRB10 (UniProt Q13322), inactive: 0; under GLT8D1 (UniProt Q68CQ7), inactive: 0.
For the target GTF2H4 (UniProt Q92759), the “dose-dependent thermal stabilisation call” value is inactive: 0.
As to GOPC (UniProt Q9HD26), the “dose-dependent thermal stabilisation call” value was inactive: 0.
For HIST1H1C (UniProt P16403) the value was inactive: 0.
As to GTF2I (UniProt P78347), the “dose-dependent thermal stabilisation call” value was inactive: 0.
For GGA2 (UniProt Q9UJY4) the value was inactive: 0; for HIP1R (UniProt O75146), inactive: 0.
Turning to GEMIN5 (UniProt Q8TEQ6), the “dose-dependent thermal stabilisation call” value is inactive: 0.
HAX1 (UniProt O00165): the “dose-dependent thermal stabilisation call” value is inactive: 0.
Under GTF3C4 (UniProt Q9UKN8) stands inactive: 0.
For HDAC4 (UniProt P56524) the value was inactive: 0; for H6PD (UniProt O95479), inactive: 0.
As to HEATR2 (UniProt Q86Y56), the “dose-dependent thermal stabilisation call” value is inactive: 0.
For GINS2 (UniProt Q9Y248) the value was inactive: 0; for GLA (UniProt P06280), inactive: 0.
For HEBP1 (UniProt Q9NRV9), the “dose-dependent thermal stabilisation call” value is inactive: 0.
Under GNL2 (UniProt Q13823) stands inactive: 0; under GNB1L (UniProt Q9BYB4), inactive: 0.
Under GTF2F2 (UniProt P13984) stands inactive: 0.
